Reference: PubChem BioAssay AID1259306 (Sanger Institute, 2017)
Here is an unselected part of 794 reagents tested. 11 of all reagents (1.4%) count as active. 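Calls reflect knock-down alone; synergy scores play no part, so knock-downs synergising with a drug can be called no change.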 A number with no mark means an inactive call. No viability above 1 is reported: the scale is capped. Further read-outs or replicates are left out here. Not stated in the record: the amount of reagent, the time to read-out.

Test: 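Kinase-wide siRNA screen for partners of targeted drugs in colorectal cancer cells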 (primary screen)
Cell system: human SNU-C5 colorectal cancer cells
Knock-down reagent: siRNA pool against human genes
Treatment: DMSO vehicle alone, or one anchor drug: BYL719 at 1 µM, cetuximab at 5 µg/ml or trametinib at 10 nM, given 24 h into the assay
Detection: 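Viability versus non-targeting pool averaged across replicates, given as fraction and robust z-score, and synergy scores for BYL719, cetuximab or trametinib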
Scale: robust z-score, knock-down alone and viability, knock-down alone: higher = more viable cells
Hit rule: 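Essential if knock-down without drug gives a robust z-score under -3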
Calls: active = essential (knock-down alone); inactive = no change alone

ADCK1 | robust z-score, knock-down alone = -0.868; viability, knock-down alone = 0.744
GNAS | robust z-score, knock-down alone = 0.189; viability, knock-down alone = 0.89
ROCK2 | robust z-score, knock-down alone = -1.84; viability, knock-down alone = 0.61
LIMK1 | robust z-score, knock-down alone = 0.989; viability, knock-down alone = 1
CDKN2C | robust z-score, knock-down alone = -0.364; viability, knock-down alone = 0.814

Continued (2 carried over from the part before).
LIMK1 | robust z-score, knock-down alone = 0.989; viability, knock-down alone = 1
CDKN2C | robust z-score, knock-down alone = -0.364; viability, knock-down alone = 0.814
CUL1 | robust z-score, knock-down alone = 0.834; viability, knock-down alone = 0.979
MAPK8 | robust z-score, knock-down alone = 0.989; viability, knock-down alone = 1
CDK18 | robust z-score, knock-down alone = -2.45; viability, knock-down alone = 0.526
PIKFYVE | robust z-score, knock-down alone = 0.436; viability, knock-down alone = 0.924
ITPKB | robust z-score, knock-down alone = 0.298; viability, knock-down alone = 0.905
PLK2 | robust z-score, knock-down alone = 0.989; viability, knock-down alone = 1
PKM | robust z-score, knock-down alone = 0.000327; viability, knock-down alone = 0.864
